From PubChem BioAssay AID256 (DTP/NCI, 2004)
The list is a part of this screen's results and no random one: it is rich in T/C values a quarter to a half above the control, in often repeated tests (any T/C) and in doses without a T/C. Other doses and runs of a compound stand elsewhere. T/C is the treated group as % of the vehicle group. Some entries give survivors of the animals treated and no T/C: the source files T/C as zero there, which appears to mark a toxic dose or a test without result, not a measured value. Some survivor counts are full or nearly so, which does not show that the dose was tolerated: survival well below the control is almost never listed, so the zero probably covers shortened survival too. Survivors were counted at the toxicity check, usually on the fifth day, unless a day is given; later deaths do not show. Schedule codes are those of the source, read here as Q, the interval in days (D) or hours (H), X, the number of doses. Some structures stand for samples that the source files as different forms (salt, stereo form or complex); doses refer to the form tested. Counts like (3×) count equal records among those shown. Some entries were tested several times; the results are listed from low to high. For survival time, the PubChem record calls one and a half times the control and up active, and a quarter to a half above the control has no call in these data; cut-offs in other NCI protocols can differ.

System: CD2F1 mice, L1210 leukemia ip, survival T/C
Assay: NCI In Vivo Anticancer Drug Screen. Data for tumor model L1210 Leukemia (intraperitoneal) in CD2F1 (CDF1) mice
Conditions: T/C endpoint: mean survival time, higher T/C = longer survival
Procedure, shortened: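 Each value reflects a quotient of treated over vehicle control outcomes in mice with a transplanted tumor.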

COc1cc(NS(C)(=O)=O)ccc1Nc1c2ccccc2nc2ccccc12
T/C (dose: 0.25 mg/kg/injection, schedule: Q03HX024 (ip), vehicle: saline): 127 % of control
T/C (dose: 0.5 mg/kg/injection, schedule: Q03HX016 (ip), vehicle: saline): 136 % of control
T/C (dose: 0.5 mg/kg/injection, schedule: Q03HX024 (ip), vehicle: saline): 147 % of control
T/C (dose: 0.9 mg/kg/injection, schedule: Q01DX009 (ip), vehicle: other): 135 (2×) and 141 % of control (2×)
T/C (dose: 1.0 mg/kg/injection, schedule: Q01DX009 (ip), vehicle: saline, evaluated on day 5): 135 % of control
T/C (dose: 1.0 mg/kg/injection, schedule: Q01DX009 (ip), vehicle: saline, evaluated on day 60): 127 and 148 % of control
T/C (dose: 1.0 mg/kg/injection, schedule: Q03HX008 (ip), vehicle: saline): 141 % of control
T/C (dose: 1.0 mg/kg/injection, schedule: Q03HX024 (ip), vehicle: saline): 130 and 149 % of control
T/C (dose: 1.8 mg/kg/injection, schedule: Q01DX001 (ip), vehicle: other): 127 (2×) and 131 % of control (2×)
T/C (dose: 1.8 mg/kg/injection, schedule: Q01DX009 (ip), vehicle: other): 148 % of control (2×)
T/C (dose: 1.8 mg/kg/injection, schedule: Q04DX003 (ip), vehicle: other): 125 (2×) and 130 % of control (2×)
T/C (dose: 2.0 mg/kg/injection, schedule: Q01DX009 (ip), vehicle: saline): 149 % of control
T/C (dose: 2.0 mg/kg/injection, schedule: Q03HX016 (ip), vehicle: saline): 147 % of control
T/C (dose: 2.0 mg/kg/injection, schedule: Q03HX024 (ip), vehicle: saline): 149 % of control
T/C (dose: 2.0 mg/kg/injection, schedule: Q04DX003 (ip), vehicle: saline): 129 % of control
T/C (dose: 3.75 mg/kg/injection, schedule: Q01DX001 (ip), vehicle: other): 125 (2×) and 130 % of control (2×)
T/C (dose: 3.75 mg/kg/injection, schedule: Q01DX009 (ip), vehicle: Klucel (hydroxypropylcellulose) (HPC)): 141 % of control
T/C (dose: 3.75 mg/kg/injection, schedule: Q04DX003 (ip), vehicle: other): 147 % of control (2×)
T/C (dose: 4.0 mg/kg/injection, schedule: Q01DX009 (sc), vehicle: saline): 126 % of control
T/C (dose: 4.0 mg/kg/injection, schedule: Q04DX003 (ip), vehicle: saline): 135 % of control
T/C (dose: 4.0 mg/kg/injection, schedule: Q08DX002 (ip), vehicle: saline): 125 % of control
T/C (dose: 7.5 mg/kg/injection, schedule: Q01DX001 (ip), vehicle: Klucel (hydroxypropylcellulose) (HPC)): 131 % of control
T/C (dose: 7.5 mg/kg/injection, schedule: Q01DX001 (ip), vehicle: other): 138 (2×) and 142 % of control (2×)
T/C (dose: 7.5 mg/kg/injection, schedule: Q04DX003 (ip), vehicle: Klucel (hydroxypropylcellulose) (HPC)): 126 % of control
T/C (dose: 7.5 mg/kg/injection, schedule: Q04DX003 (ip), vehicle: other): 148 % of control (2×)
T/C (dose: 8.0 mg/kg/injection, schedule: Q01DX001 (ip), vehicle: saline): 133 % of control
T/C (dose: 8.0 mg/kg/injection, schedule: Q01DX009 (ip), vehicle: saline): 126 and 147 % of control
T/C (dose: 8.0 mg/kg/injection, schedule: Q01DX009 (sc), vehicle: saline): 132 % of control
survivor count (dose: 8.0 mg/kg/injection, schedule: Q03HX008 (ip), vehicle: saline): 0 of 10
survivor count (dose: 8.0 mg/kg/injection, schedule: Q03HX016 (ip), vehicle: saline): 2 of 10
survivor count (dose: 8.0 mg/kg/injection, schedule: Q03HX024 (ip), vehicle: saline): 8 of 10
T/C (dose: 8.0 mg/kg/injection, schedule: Q04DX003 (ip), vehicle: saline): 141 and 142 % of control
T/C (dose: 8.0 mg/kg/injection, schedule: Q08DX002 (ip), vehicle: saline): 139 % of control
T/C (dose: 12.5 mg/kg/injection, schedule: Q01DX001 (ip), vehicle: Klucel (hydroxypropylcellulose) (HPC)): 129 % of control
T/C (dose: 15.0 mg/kg/injection, schedule: Q01DX001 (ip), vehicle: other): 147 % of control (2×)
survivor count (dose: 15.0 mg/kg/injection, schedule: Q01DX009 (ip), vehicle: other): 8 of 10 (2×) and 9 of 10 (2×)
T/C (dose: 15.0 mg/kg/injection, schedule: Q04DX003 (ip), vehicle: Klucel (hydroxypropylcellulose) (HPC)): 139 % of control
T/C (dose: 16.0 mg/kg/injection, schedule: Q01DX001 (ip), vehicle: saline): 140 and 145 % of control
survivor count (dose: 16.0 mg/kg/injection, schedule: Q01DX009 (ip), vehicle: saline): 10 of 10 (2×)
survivor count (dose: 16.0 mg/kg/injection, schedule: Q03HX008 (ip), vehicle: saline): 0 of 10 and 5 of 10
survivor count (dose: 16.0 mg/kg/injection, schedule: Q03HX016 (ip), vehicle: saline): 5 of 10
survivor count (dose: 16.0 mg/kg/injection, schedule: Q03HX024 (ip), vehicle: saline): 5 of 10
T/C (dose: 16.0 mg/kg/injection, schedule: Q08DX002 (ip), vehicle: saline): 140 % of control
T/C (dose: 25.0 mg/kg/injection, schedule: Q01DX001 (ip), vehicle: Klucel (hydroxypropylcellulose) (HPC)): 148 % of control
T/C (dose: 30.0 mg/kg/injection, schedule: Q01DX001 (ip), vehicle: Klucel (hydroxypropylcellulose) (HPC)): 134 % of control
survivor count (dose: 30.0 mg/kg/injection, schedule: Q01DX001 (ip), vehicle: other): 3 of 10 (2×) and 4 of 10 (2×)
survivor count (dose: 30.0 mg/kg/injection, schedule: Q01DX009 (ip), vehicle: Klucel (hydroxypropylcellulose) (HPC)): 10 of 10
T/C (dose: 30.0 mg/kg/injection, schedule: Q04DX003 (ip), vehicle: Klucel (hydroxypropylcellulose) (HPC)): 128 % of control
survivor count (dose: 30.0 mg/kg/injection, schedule: Q04DX003 (ip), vehicle: other): 4 of 10 (2×) and 6 of 10 (2×)
T/C (dose: 32.0 mg/kg/injection, schedule: Q01DX001 (ip), vehicle: saline): 148 % of control
survivor count (dose: 32.0 mg/kg/injection, schedule: Q03HX008 (ip), vehicle: saline): 5 of 10
survivor count (dose: 32.0 mg/kg/injection, schedule: Q03HX016 (ip), vehicle: saline): 3 of 10
T/C (dose: 32.0 mg/kg/injection, schedule: Q04DX003 (ip), vehicle: saline): 134 % of control
T/C (dose: 32.0 mg/kg/injection, schedule: Q08DX002 (ip), vehicle: saline): 143 % of control
T/C (dose: 50.0 mg/kg/injection, schedule: Q01DX001 (ip), vehicle: Klucel (hydroxypropylcellulose) (HPC)): 132 % of control
survivor count (dose: 60.0 mg/kg/injection, schedule: Q01DX009 (ip), vehicle: Klucel (hydroxypropylcellulose) (HPC)): 3 of 10
T/C (dose: 64.0 mg/kg/injection, schedule: Q01DX001 (ip), vehicle: saline): 139 % of control
survivor count (dose: 64.0 mg/kg/injection, schedule: Q01DX009 (oral), vehicle: saline): 10 of 10 (2×)
T/C (dose: 64.0 mg/kg/injection, schedule: Q08DX002 (ip), vehicle: saline): 140 % of control
survivor count (dose: 120.0 mg/kg/injection, schedule: Q04DX003 (ip), vehicle: Klucel (hydroxypropylcellulose) (HPC)): 10 of 10
survivor count (dose: 128.0 mg/kg/injection, schedule: Q01DX001 (ip), vehicle: saline): 6 of 10
